Measurements reported in PubChem BioAssay AID1224826 (NIAID, 2016).
This is one part, drawn at random, of about 17,000 deposited reagents. About 1,110 of them (6.6%) were called active. 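Active means lowered or raised reporter signal; replicate intensities are raw and not normalised per plate.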 The numbers tell different reagents against one gene apart.

Aim: 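Knock-downs that raise or lower Tnf reporter signal after endotoxin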 (primary screen)
System: RAW264.7 G9 macrophages from mouse bearing reporters for p65 (GFP) and the Tnf promoter (mCherry)
Reagent: siRNA pool against mouse genes, 100 nM
Timing: 16 h of LPS stimulation, after 2 days of siRNA transfection
Conditions: bacterial lipopolysaccharide (Salmonella minnesota R595), 10 ng/ml
Read-out: 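Nuclear mCherry signal of the Tnf promoter reporter measured by imaging after background removal, scaled to each plate median and turned into robust z-scores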
Direction: Tnf reporter robust z-score: higher = stronger Tnf promoter reporter signal after LPS; Tnf reporter intensity: higher = stronger Tnf promoter reporter signal
Active means: 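a well counts as active at a score of -1.3 or below (Tlr4 knock-down control median) or above 3 (raised signal); controls and wells holding fewer than 50 cells are excluded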
Meaning of the calls: active = Tnf reporter clearly lowered or raised; inactive = no clear change in Tnf reporter

no.	Gene	reagent	Tnf reporter robust z-score	fewer than 50 cells in well	Tnf reporter intensity, replicate 1	Tnf reporter intensity, replicate 2	Outcome
1	Acy1 (GeneID 109652)	1	-0.69	enough cells in well	105	131	inactive
2	Snapc3 (GeneID 77634)	1	-0.5	enough cells in well	226	184	inactive
3	Rtl6 (GeneID 223732)	1	-1.49	enough cells in well	47.4	94.7	active
4	Map7 (GeneID 17761)	1	0.33	enough cells in well	366	168	inactive
5	Klk1b4 (GeneID 18048)	1	-0.9	enough cells in well	136	85.8	inactive
6	Catsperd (GeneID 106757)	1		fewer than 50 cells per well; well left out of calls	192	86.1	inactive
7	Ube2e3 (GeneID 22193)	1	0.41	enough cells in well	280	240	inactive
8	Supt4b (GeneID 100041294)	1	-1.93	enough cells in well	41.2	29.6	active
9	Or4f15 (GeneID 258439)	1	-0.19	enough cells in well	161	118	inactive
10	Nono (GeneID 53610)	1	-0.49	enough cells in well	166	117	inactive
11	Sgk3 (GeneID 170755)	1	0.81	enough cells in well	286	170	inactive
12	Pld1 (GeneID 18805)	1	-0.23	enough cells in well	250	157	inactive
13	Lncpint (GeneID 232685)	1		fewer than 50 cells per well; well left out of calls	319	155	inactive
14	Grin2b (GeneID 14812)	1	-0.25	enough cells in well	247	204	inactive
15	Shisa4 (GeneID 77552)	1	0.29	enough cells in well	188	217	inactive
16	Retnlg (GeneID 245195)	1	1.94	enough cells in well	187	236	inactive
17	Slc7a1 (GeneID 11987)	1	0.08	enough cells in well	134	71	inactive
18	Zdhhc19 (GeneID 245308)	1	-0.26	enough cells in well	115	112	inactive
19	Enpp3 (GeneID 209558)	1	0.37	enough cells in well	239	279	inactive
20	Gpr63 (GeneID 81006)	1	0.66	enough cells in well	259	368	inactive
21	Abraxas1 (GeneID 70681)	1	0.42	enough cells in well	212	158	inactive
22	Abraxas1 (GeneID 70681)	2	-0.25	enough cells in well	138	61.5	inactive
23	Ccdc106 (GeneID 232821)	1	-0.6	enough cells in well	150	182	inactive
24	Prkaa2 (GeneID 108079)	1	-0.58	enough cells in well	138	147	inactive
25	Thap3 (GeneID 69876)	1		fewer than 50 cells per well; well left out of calls	187	49.4	inactive
26	Pnkd (GeneID 56695)	1	1.29	enough cells in well	172	282	inactive
27	Mycbp (GeneID 56309)	1	-0.31	enough cells in well	194	99.9	inactive
28	Tspyl1 (GeneID 22110)	1		fewer than 50 cells per well; well left out of calls	58.7	73.9	inactive
29	Krtap6-2 (GeneID 16701)	1	-0.22	enough cells in well	184	118	inactive
30	Flna (GeneID 192176)	1	-0.84	enough cells in well	228	128	inactive
31	Cmc2 (GeneID 66531)	1	0.41	enough cells in well	200	157	inactive
32	Fzd7 (GeneID 14369)	1	0.02	enough cells in well	192	340	inactive
33	Lamp3 (GeneID 239739)	1	-0.31	enough cells in well	229	78.2	inactive
34	Cfap95 (GeneID 67483)	1	2.12	enough cells in well	360	290	inactive
35	Ank1 (GeneID 11733)	1		fewer than 50 cells per well; well left out of calls	99.1	114	inactive
36	Ranbp1 (GeneID 19385)	1	0.65	enough cells in well	398	236	inactive
37	Tmed4 (GeneID 103694)	1	-0.75	enough cells in well	234	47.1	inactive
38	Diaph1 (GeneID 13367)	1	0.03	enough cells in well	219	224	inactive
39	Ganab (GeneID 14376)	1	-1.04	enough cells in well	139	103	inactive
40	2310022B05Rik (GeneID 69551)	1		fewer than 50 cells per well; well left out of calls	65.3	22.6	inactive
